The record followed here is article PMC4114980.

For assay [1], the target named is T1, Chro-FL (1–926), full-length Chromator GST-fusion protein (Drosophila) (UniProt Q86BS3).
T1 sequence: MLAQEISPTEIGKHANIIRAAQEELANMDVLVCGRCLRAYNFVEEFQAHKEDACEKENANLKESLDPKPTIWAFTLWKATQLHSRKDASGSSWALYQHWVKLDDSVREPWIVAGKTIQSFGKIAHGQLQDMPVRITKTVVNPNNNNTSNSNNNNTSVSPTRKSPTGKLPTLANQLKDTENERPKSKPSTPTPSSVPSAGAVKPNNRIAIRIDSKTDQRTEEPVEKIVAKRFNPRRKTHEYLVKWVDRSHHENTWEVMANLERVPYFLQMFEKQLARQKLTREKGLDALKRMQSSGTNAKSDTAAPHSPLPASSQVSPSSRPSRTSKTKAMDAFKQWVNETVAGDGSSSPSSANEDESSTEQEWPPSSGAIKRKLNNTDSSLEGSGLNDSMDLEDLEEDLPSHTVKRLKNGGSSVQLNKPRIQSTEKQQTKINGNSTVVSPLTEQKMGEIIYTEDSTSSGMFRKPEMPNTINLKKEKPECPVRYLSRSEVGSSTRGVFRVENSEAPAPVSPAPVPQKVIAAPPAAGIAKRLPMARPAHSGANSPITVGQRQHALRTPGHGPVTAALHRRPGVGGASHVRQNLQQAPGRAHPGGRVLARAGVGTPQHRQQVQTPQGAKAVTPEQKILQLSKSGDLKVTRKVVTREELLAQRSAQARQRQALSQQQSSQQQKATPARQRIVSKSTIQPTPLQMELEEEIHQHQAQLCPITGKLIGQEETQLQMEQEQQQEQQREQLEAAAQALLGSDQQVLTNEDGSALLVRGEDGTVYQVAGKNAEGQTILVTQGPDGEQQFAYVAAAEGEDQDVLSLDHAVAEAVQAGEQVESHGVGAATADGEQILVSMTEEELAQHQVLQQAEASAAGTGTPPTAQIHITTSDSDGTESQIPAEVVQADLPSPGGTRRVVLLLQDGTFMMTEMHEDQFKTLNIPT
Briefly: far-Western, overlay or dot blot; GST fusion proteins fractionated by SDS-PAGE and blotted to nitrocellulose; incubated overnight at room temperature with 5 µg/ml bovine tubulin polymerized with 1 mM GTP and 20 µM taxol in PEMF buffer; bound microtubules detected with anti-tubulin antibody; both purified.

Assay [2] addresses T2, Chro-M (329-600), truncated COOH-terminal domain of Chromator, GST-fusion protein (Drosophila) (UniProt Q86BS3).
T2 sequence: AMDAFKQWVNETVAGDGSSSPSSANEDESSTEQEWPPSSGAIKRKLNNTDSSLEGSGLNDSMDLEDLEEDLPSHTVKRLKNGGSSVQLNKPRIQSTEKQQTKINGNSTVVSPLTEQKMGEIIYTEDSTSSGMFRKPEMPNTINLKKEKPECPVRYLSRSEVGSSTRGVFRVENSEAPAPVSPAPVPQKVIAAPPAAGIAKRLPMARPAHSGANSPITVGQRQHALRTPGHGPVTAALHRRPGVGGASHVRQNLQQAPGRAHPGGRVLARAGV
The assay is described as above.

Assay [3] addresses T3, Chro-CTD (329–926), COOH-terminal domain of Chromator, GST-fusion protein (Drosophila) (UniProt Q86BS3).
T3 sequence: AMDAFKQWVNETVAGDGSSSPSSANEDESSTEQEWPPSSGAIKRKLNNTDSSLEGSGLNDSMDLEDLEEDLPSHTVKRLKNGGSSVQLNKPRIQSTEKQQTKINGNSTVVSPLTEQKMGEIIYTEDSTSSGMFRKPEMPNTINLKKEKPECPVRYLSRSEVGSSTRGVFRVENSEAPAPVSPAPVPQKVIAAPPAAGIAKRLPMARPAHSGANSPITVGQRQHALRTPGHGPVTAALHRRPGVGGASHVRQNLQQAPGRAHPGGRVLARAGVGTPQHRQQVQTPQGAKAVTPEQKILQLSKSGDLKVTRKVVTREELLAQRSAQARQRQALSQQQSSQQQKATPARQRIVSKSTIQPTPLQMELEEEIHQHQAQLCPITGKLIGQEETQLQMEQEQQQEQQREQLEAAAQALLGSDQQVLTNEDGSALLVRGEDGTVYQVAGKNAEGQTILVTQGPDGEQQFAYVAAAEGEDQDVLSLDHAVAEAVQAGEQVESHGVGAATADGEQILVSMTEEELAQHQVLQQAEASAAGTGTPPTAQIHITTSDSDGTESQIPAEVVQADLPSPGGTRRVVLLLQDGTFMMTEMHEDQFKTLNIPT
The description is as above.

In assay [4] the target is T4, Chro-NTD (1–346), NH2-terminal domain of Chromator, GST-fusion protein (Drosophila) (UniProt Q86BS3).
T4 sequence: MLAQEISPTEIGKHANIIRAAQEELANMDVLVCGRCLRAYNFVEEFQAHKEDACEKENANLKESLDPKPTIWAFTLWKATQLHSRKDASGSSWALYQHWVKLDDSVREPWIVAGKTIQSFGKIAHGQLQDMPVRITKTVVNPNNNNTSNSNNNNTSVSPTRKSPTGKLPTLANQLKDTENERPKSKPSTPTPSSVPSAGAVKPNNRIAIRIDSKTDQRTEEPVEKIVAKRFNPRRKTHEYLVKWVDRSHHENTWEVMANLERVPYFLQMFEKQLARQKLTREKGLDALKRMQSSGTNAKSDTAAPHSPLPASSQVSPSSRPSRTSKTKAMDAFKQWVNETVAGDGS
The assay is described as above.

The target of assay [5] is T3, Chro-CTD (329–926), COOH-terminal domain of Chromator, GST-fusion protein (Drosophila). Briefly: pull-down; GST fusion proteins or GST on glutathione agarose beads, incubated with purified bovine tubulin in ip buffer with 20 µM taxol and 2 mM GTP (microtubules) overnight at 4°C; blot with tubulin antibody; both purified.

Results are given in words; binding and its absence hold for the method and conditions named. For some assays here: Binding can be weak; no strength is given. Where a sequence is shown, tags or fusion partners need not be part of it.

As for purified bovine brain tubulin (complex), the binding result in assay [1] is “binds”; in assay [2] it was “binds”; in assay [3] it was “binds”; in assay [4], “no binding (tested: 5 µg/ml tubulin)”; in assay [5] it was “binds”.
